Experimental data published in the supplement of paper PMC12889115.
Some of the results follow. These are raw signals, not scaled to a control.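 In the initial screen, polymyxin B was used at a concentration that permeabilizes Salmonella's outer membrane but not its inner membrane. Maximum growth was set by DMSO wells with or without polymyxin B. Since plates varied, data were ranked per plate, and compounds giving the lowest OD600 advanced as hits.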

Tested on: Salmonella enterica serovar Typhimurium SL1344
Experiment: bacterial growth OD600 after 18 h with compound and polymyxin B; higher = more bacterial growth (less inhibition)
Details: 50 µM, Mueller-Hinton broth

| SMILES | bacterial growth OD600 (polymyxin B 0.75 µg/mL) | bacterial growth OD600 (polymyxin B 1 µg/mL) |
| --- | --- | --- |
| COCCN1CCN(C(=O)CC2(c3cccc(C(F)(F)F)c3)CC(=O)N(C3CC3)C2=O)CC1 (stereo unspecified) | 0.851 |  |
| O=C(NCCc1cn2ccccc2n1)c1coc(CN2CCc3ccccc3C2)n1 |  | 0.713 |
| O=C(NC1CCCc2nc(-c3cccnc3)ncc21)c1noc2c1CCCC2 (stereo unspecified) | 0.837 |  |
| COCCNC(=O)c1ccc(OC2CCN(C3CCOCC3)CC2)c(Cl)c1 |  | 0.908 |
| COc1ccc(Cc2noc(-c3ccc(N(C)Cc4nonc4C)nc3)n2)cc1 |  | 0.777 |
| COC(=O)[C@@H]1CCCN1C(=O)c1cc(Cn2c(C)nc3ccccc32)on1 |  | 1.04 |
| CCC1CN(CCC(=O)NCc2ccc3c(c2)OCO3)Cc2cc(OC)ccc2O1 (stereo unspecified) | 0.926 |  |
| Cc1ccc(-c2ccnc(-n3ncc(C(=O)NCC4(N5CCCCC5)CCCC4)c3C3CC3)n2)o1 | 0.789 |  |
| Cn1c(CN2CCOc3ccc(C4=Cc5ccccc5CC4)cc3C2)nc2ccccc21 | 0.093 |  |
| CCOC(=O)N1CCN(C2CCCN(Cc3cc(C)ccc3-n3cccn3)C2)CC1 (stereo unspecified) |  | 1.04 |
| CCOc1ccc2nc(N3CCC(NCc4ccc(C)o4)CC3)nc(C)c2c1 | 0.705 |  |
| COc1ccc(/C=C/C(=O)NCCN2Cc3ccccc3OC(c3ccsc3)C2)cc1OC (stereo unspecified) | 0.009 |  |
| COC(=O)CC1C(=O)NCCN1C(=O)c1csc2nc(-c3ccccc3)cn12 (stereo unspecified) |  | 1.1 |
| CC(Cn1cncn1)NC(=O)c1ccc2oc(CCc3ccccc3)nc2c1 (stereo unspecified) |  | 0.822 |
| Cc1oc(-c2ccc(C(F)(F)F)cc2)nc1CN(C)C(C)c1ccon1 (stereo unspecified) |  | 0.527 |
| c1ccc2c(NC3CCCCC3)nc(CN3CCCC3c3nccs3)nc2c1 (stereo unspecified) | 0.883 |  |

| SMILES | bacterial growth OD600 (polymyxin B 0.75 µg/mL) | bacterial growth OD600 (polymyxin B 1 µg/mL) |
| --- | --- | --- |
| CC(=O)N1CCN(C(=O)CC2(c3cccc(F)c3)CC(=O)N(C3CCCC3)C2=O)CC1 (stereo unspecified) | 0.828 |  |
| CC(=O)N1CCN(C(=O)c2ccc(OC3CCN(S(C)(=O)=O)CC3)c(Cl)c2)CC1 | 0.844 |  |
| Cc1ccccc1-c1noc(-c2ccc(NCCn3cccn3)nc2)n1 | 0.149 |  |
| CCOC(=O)C1CCN(C(=O)c2cc(NS(=O)(=O)N(C)C)cc3nc(CC(C)C)n(C)c23)CC1 | 0.789 |  |
| CCN1CCN(c2ccc(C(=O)N3CCCC(c4ccccc4)CC3)cn2)CC1 (stereo unspecified) |  | 0.968 |
| Cc1c(C(=O)N(C)CCc2ccccn2)sc2ncnc(NC[C@H]3C[C@@H]4C=C[C@H]3C4)c12 | 0.008 |  |
| CCCCc1nc(CN2CCCC(CNC(=O)c3cc(OC)cc(OC)c3)C2)c[nH]1 (stereo unspecified) |  | 0.877 |
| OC[C@@H]1CCCN1Cc1cn(-c2ccccc2)nc1-c1ccc2c(c1)OCO2 |  | 0.812 |
| CCOCCCNC(=O)c1ccc(OC2CCN(S(C)(=O)=O)CC2)c(Cl)c1 | 0.82 |  |
| Cc1c(CNC2CCCc3nc(-c4ccccc4)ncc32)cnn1C (stereo unspecified) | 0.766 |  |
| COc1cc(CN[C@H]2CC[C@H](O)CC2)ccc1OCC(O)CN1CCCCCCC1 (stereo partly specified) |  | 1.08 |
| Cc1cnc(CNC(=O)c2coc(COc3cccc(C(F)(F)F)c3)n2)cn1 |  | 0.899 |
| CSCCC(=O)N1CCC2(CC1)CC2C(=O)NCCCc1ccccc1 (stereo unspecified) | 0.771 |  |
| CCn1cc(CN2CCC(Oc3ccc(C(=O)NCCOC)cc3Cl)CC2)cn1 |  | 0.878 |
| O=C(c1ccc(-n2cccn2)cc1)N1CCOc2c(cc(-c3cccnc3)cc2OCCc2cccs2)C1 | 0.464 |  |

2 records picked at random from the list so far, as already listed:

| SMILES | bacterial growth OD600 (polymyxin B 0.75 µg/mL) | bacterial growth OD600 (polymyxin B 1 µg/mL) |
| --- | --- | --- |
| CC(=O)N1CCN(C(=O)CC2(c3cccc(F)c3)CC(=O)N(C3CCCC3)C2=O)CC1 (stereo unspecified) | 0.828 |  |
| CCn1cc(CN2CCC(Oc3ccc(C(=O)NCCOC)cc3Cl)CC2)cn1 |  | 0.878 |
